Binding data for three molecules are collected here from article PMC5998066.

By UniProt entry, the sequences of proteins in these tests, tags left out.
UniProt Q969V5: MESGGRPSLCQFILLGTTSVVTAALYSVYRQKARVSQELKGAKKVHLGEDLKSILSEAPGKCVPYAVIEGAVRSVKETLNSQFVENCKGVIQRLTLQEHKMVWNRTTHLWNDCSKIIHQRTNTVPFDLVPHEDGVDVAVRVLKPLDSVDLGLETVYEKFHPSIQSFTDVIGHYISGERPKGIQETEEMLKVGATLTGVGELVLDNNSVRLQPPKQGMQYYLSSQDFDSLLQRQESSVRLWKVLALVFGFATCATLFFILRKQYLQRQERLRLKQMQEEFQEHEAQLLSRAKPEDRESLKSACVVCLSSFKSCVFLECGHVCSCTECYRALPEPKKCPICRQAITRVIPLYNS
UniProt Q13049: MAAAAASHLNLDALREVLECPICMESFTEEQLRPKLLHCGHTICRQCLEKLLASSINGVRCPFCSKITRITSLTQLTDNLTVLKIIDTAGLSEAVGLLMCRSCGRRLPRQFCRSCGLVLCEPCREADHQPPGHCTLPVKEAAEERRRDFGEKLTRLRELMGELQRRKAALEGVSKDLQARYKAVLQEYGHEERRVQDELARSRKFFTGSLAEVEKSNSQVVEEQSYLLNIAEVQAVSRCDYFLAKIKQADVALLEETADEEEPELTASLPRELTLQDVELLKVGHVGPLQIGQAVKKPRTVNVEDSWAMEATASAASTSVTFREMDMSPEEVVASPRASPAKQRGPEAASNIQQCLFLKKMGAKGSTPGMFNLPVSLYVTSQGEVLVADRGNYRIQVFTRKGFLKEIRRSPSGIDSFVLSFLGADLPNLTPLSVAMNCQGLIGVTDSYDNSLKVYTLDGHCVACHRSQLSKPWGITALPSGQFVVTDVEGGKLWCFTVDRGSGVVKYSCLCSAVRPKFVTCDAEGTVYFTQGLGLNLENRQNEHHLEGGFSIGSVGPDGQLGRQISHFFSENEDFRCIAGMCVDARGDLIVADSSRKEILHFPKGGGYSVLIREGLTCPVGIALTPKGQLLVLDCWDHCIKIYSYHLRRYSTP
UniProt Q86WV6: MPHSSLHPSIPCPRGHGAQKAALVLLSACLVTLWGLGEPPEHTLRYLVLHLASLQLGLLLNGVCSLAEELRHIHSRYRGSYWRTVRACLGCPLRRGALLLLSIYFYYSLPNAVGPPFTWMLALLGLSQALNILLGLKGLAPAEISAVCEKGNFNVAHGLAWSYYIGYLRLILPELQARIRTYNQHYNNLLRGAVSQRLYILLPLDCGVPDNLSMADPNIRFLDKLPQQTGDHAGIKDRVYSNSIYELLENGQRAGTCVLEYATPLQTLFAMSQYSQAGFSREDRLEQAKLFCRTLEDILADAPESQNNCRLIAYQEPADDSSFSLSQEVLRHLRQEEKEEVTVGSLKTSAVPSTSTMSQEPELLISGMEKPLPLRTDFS

These are yes or no findings as the source states them, for the method shown. In cells and extracts the contact can be indirect. Some binding calls cover weakened binding; strength is not graded here. For some assays here: Tags and fused reporters may be left off the sequences shown.

The target of one assay is MUL1 (UniProt Q969V5). As to the kind of experiment: co-IP; MUL1 and UBXN3B overexpressed in HEK293 cells; beads and tags not stated; no figure.
In a further assay the target is Myc-TRIM32 (human) (UniProt Q13049). As to the kind of experiment: co-IP; HEK293 cells co-transfected with FLAG-UBXN3B and Myc-TRIM plasmids; anti-Myc magnetic beads; immunoblot anti-Myc and anti-FLAG. In general terms: A western blot detects proteins with antibodies after separation by electrophoresis.
A further assay deals with T1, Myc-TRIM56 (human) (UniProt Q9BRZ2).
T1 sequence: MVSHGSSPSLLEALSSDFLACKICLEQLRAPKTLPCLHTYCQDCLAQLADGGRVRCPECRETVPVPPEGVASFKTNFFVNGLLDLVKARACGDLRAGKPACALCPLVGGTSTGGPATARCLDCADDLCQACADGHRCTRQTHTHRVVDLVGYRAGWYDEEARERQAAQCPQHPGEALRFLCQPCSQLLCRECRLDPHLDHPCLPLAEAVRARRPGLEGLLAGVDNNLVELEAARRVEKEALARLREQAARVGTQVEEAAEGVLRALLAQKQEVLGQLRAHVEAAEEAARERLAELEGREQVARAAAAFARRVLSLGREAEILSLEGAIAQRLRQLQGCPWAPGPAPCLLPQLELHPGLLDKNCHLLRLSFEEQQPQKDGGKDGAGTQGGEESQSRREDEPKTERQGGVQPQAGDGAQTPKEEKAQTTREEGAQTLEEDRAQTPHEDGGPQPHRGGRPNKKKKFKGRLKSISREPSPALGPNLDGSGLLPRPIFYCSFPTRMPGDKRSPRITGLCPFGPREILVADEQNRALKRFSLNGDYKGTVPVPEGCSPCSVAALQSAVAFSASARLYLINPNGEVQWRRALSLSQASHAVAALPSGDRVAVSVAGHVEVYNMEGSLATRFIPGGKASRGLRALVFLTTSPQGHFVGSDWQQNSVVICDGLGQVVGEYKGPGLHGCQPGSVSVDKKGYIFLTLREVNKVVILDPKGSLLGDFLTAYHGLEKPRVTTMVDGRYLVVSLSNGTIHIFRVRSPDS
Described as above.

For assay [1], the target named is STING (endogenous, human trophoblasts) (human (endogenous in primary trophoblasts)), Q86WV6. As to the kind of experiment: co-IP; endogenous proteins; WT primary human trophoblasts after cGAMP stimulation. The conditions noted are these: remark: other sources report otherwise.
In assay [2] the target is STING (endogenous, human trophoblasts) (human (endogenous in primary trophoblasts)) (UniProt Q86WV6). As to the kind of experiment: co-IP; endogenous proteins; UBXN3B-/- primary human trophoblasts after cGAMP stimulation.

B1: FLAG-UBXN3B (protein, UniProt Q96CS3 1-445)
chain: MAAPEERDLTQEQTEKLLQFQDLTGIESMDQCRHTLEQHNWNIEAAVQDRLNEQEGVPSVFNPPPSRPLQVNTADHRIYSYVVSRPQPRGLLGWGYYLIMLPFRFTYYTILDIFRFALRFIRPDPRSRVTDPVGDIVSFMHSFEEKYGRAHPVFYQGTYSQALNDAKRELRFLLVYLHGDDHQDSDEFCRNTLCAPEVISLINTRMLFWACSTNKPEGYRVSQALRENTYPFLAMIMLKDRRMTVVGRLEGLIQPDDLINQLTFIMDANQTYLVSERLEREERNQTQVLRQQQDEAYLASLRADQEKERKKREERERKRRKEEEVQQQKLAEERRRQNLQEEKERKLECLPPEPSPDDPESVKIIFKLPNDSRVERRFHFSQSLTVIHDFLFSLKESPEKFQIEANFPRRVLPCIPSEEWPNPPTLQEAGLSHTEVLFVQDLTDE
Consider B1, for which the binding result is listed as “no binding” with MUL1, “no binding” with Myc-TRIM32 (human) and “binds” with Myc-TRIM56 (human).

B2: TBK1 (endogenous, human trophoblasts), Q9UHD2 1-729 (enzyme)
chain: MQSTSNHLWLLSDILGQGATANVFRGRHKKTGDLFAIKVFNNISFLRPVDVQMREFEVLKKLNHKNIVKLFAIEEETTTRHKVLIMEFCPCGSLYTVLEEPSNAYGLPESEFLIVLRDVVGGMNHLRENGIVHRDIKPGNIMRVIGEDGQSVYKLTDFGAARELEDDEQFVSLYGTEEYLHPDMYERAVLRKDHQKKYGATVDLWSIGVTFYHAATGSLPFRPFEGPRRNKEVMYKIITGKPSGAISGVQKAENGPIDWSGDMPVSCSLSRGLQVLLTPVLANILEADQEKCWGFDQFFAETSDILHRMVIHVFSLQQMTAHKIYIHSYNTATIFHELVYKQTKIISSNQELIYEGRRLVLEPGRLAQHFPKTTEENPIFVVSREPLNTIGLIYEKISLPKVHPRYDLDGDASMAKAITGVVCYACRIASTLLLYQELMRKGIRWLIELIKDDYNETVHKKTEVVITLDFCIRNIEKTVKVYEKLMKINLEAAELGEISDIHTKLLRLSSSQGTIETSLQDIDSRLSPGGSLADAWAHQEGTHPKDRNVEKLQVLLNCMTEIYYQFKKDKAERRLAYNEEQIHKFDKQKLYYHATKAMTHFTDECVKKYEAFLNKSEEWIRKMLHLRKQLLSLTNQCFDIEEEVSKYQEYTNELQETLPQKMFTASSGIKHTMTPIYPSSNTLVEMTLGMKKLKEEMEGVVKELAENNHILERFGSLTMDGGLRNVDCL
As for B2, the binding result in assay [1] was “binds”.

B3: TBK1 (endogenous, human trophoblasts) (enzyme, UniProt Q9UHD2 1-729)
chain: MQSTSNHLWLLSDILGQGATANVFRGRHKKTGDLFAIKVFNNISFLRPVDVQMREFEVLKKLNHKNIVKLFAIEEETTTRHKVLIMEFCPCGSLYTVLEEPSNAYGLPESEFLIVLRDVVGGMNHLRENGIVHRDIKPGNIMRVIGEDGQSVYKLTDFGAARELEDDEQFVSLYGTEEYLHPDMYERAVLRKDHQKKYGATVDLWSIGVTFYHAATGSLPFRPFEGPRRNKEVMYKIITGKPSGAISGVQKAENGPIDWSGDMPVSCSLSRGLQVLLTPVLANILEADQEKCWGFDQFFAETSDILHRMVIHVFSLQQMTAHKIYIHSYNTATIFHELVYKQTKIISSNQELIYEGRRLVLEPGRLAQHFPKTTEENPIFVVSREPLNTIGLIYEKISLPKVHPRYDLDGDASMAKAITGVVCYACRIASTLLLYQELMRKGIRWLIELIKDDYNETVHKKTEVVITLDFCIRNIEKTVKVYEKLMKINLEAAELGEISDIHTKLLRLSSSQGTIETSLQDIDSRLSPGGSLADAWAHQEGTHPKDRNVEKLQVLLNCMTEIYYQFKKDKAERRLAYNEEQIHKFDKQKLYYHATKAMTHFTDECVKKYEAFLNKSEEWIRKMLHLRKQLLSLTNQCFDIEEEVSKYQEYTNELQETLPQKMFTASSGIKHTMTPIYPSSNTLVEMTLGMKKLKEEMEGVVKELAENNHILERFGSLTMDGGLRNVDCL
Turning to B3, the binding result in assay [2] is reported as “no binding (condition: in UBXN3B^−/− cells)”.
